# Laboratory results published in the M2OR odorant receptor database.
# Chains of the proteins cited; added tags and fusions are not shown. Lines headed by an entry give the natural chain unless they say otherwise; changes in a name come on top.
# UniProt Q8NH89: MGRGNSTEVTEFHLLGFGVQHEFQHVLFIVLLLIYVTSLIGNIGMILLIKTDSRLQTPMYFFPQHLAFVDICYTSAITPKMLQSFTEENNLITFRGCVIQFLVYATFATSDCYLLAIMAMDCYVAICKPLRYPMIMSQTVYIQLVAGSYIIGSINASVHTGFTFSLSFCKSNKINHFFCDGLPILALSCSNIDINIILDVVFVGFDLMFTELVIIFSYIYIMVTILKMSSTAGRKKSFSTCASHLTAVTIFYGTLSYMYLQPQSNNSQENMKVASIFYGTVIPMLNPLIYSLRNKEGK
# UniProt Q8NGF4: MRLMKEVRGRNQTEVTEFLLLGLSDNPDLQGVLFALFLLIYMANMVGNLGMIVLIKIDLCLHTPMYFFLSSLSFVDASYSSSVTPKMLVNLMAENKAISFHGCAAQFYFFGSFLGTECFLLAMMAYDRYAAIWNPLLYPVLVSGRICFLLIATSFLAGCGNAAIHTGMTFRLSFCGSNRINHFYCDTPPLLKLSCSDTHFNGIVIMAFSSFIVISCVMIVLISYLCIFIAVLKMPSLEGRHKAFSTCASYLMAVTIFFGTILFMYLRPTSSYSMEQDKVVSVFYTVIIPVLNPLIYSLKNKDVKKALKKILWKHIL
# UniProt Q96R08: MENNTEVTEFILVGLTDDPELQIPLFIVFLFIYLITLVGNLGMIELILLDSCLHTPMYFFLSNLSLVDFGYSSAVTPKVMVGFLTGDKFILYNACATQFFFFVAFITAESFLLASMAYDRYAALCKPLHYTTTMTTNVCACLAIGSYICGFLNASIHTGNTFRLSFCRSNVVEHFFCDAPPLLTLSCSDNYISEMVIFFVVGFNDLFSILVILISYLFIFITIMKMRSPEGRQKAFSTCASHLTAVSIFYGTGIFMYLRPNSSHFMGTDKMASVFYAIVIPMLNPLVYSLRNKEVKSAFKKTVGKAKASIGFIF
# UniProt Q96R09: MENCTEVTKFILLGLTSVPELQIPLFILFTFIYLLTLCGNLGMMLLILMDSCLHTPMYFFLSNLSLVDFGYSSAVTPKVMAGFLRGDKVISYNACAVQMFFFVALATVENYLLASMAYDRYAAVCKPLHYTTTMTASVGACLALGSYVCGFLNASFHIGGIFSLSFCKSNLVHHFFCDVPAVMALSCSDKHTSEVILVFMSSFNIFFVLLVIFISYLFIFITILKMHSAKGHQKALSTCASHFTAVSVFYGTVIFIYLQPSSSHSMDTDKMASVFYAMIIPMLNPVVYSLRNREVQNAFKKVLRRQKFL
# UniProt A6NL26: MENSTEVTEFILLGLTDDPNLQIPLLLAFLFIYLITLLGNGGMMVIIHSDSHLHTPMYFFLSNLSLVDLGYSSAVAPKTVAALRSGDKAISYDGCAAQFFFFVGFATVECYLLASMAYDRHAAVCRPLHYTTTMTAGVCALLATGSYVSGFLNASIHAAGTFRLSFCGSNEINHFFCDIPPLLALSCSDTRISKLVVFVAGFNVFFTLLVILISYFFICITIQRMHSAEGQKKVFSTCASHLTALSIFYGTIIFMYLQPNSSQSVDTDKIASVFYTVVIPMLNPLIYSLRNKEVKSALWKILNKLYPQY
# This is a selection; strong and weak results do not stand in their true shares. The calls were merged from several studies; some rest on single wells. The list shows a part of the results. The list shows a part of the results.
# Assays:
# Settings in all cases: stereoisomer not certain
# [1] = biological target: T1, OR56A5 (Homo sapiens) (UniProt P0C7T3)
# T1 sequence (whole entry): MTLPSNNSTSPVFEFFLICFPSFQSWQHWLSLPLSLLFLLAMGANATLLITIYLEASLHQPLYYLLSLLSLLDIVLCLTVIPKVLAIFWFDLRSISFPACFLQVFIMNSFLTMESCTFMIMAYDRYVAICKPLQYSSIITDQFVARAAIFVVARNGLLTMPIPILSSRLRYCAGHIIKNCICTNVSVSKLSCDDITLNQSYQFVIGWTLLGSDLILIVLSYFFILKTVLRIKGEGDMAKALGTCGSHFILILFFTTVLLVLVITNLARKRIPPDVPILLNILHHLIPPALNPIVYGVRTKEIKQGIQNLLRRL
# How it was run: (§1)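 Values were gathered from published papers (main text and supplementary material), with extra details requested from the original authors when needed, and checked for typos and inconsistencies. Each receptor–molecule pair is called responsive (active) if the original authors judged the measured signal statistically different from baseline, and non-responsive (inactive) otherwise. Assay methods varied by source, often transient mammalian cell-line luciferase assays. Recorded details include cell line, G-protein, co-transfected protein and tags.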
# [2] = system: T2, OR5A1
# T2 sequence (whole entry): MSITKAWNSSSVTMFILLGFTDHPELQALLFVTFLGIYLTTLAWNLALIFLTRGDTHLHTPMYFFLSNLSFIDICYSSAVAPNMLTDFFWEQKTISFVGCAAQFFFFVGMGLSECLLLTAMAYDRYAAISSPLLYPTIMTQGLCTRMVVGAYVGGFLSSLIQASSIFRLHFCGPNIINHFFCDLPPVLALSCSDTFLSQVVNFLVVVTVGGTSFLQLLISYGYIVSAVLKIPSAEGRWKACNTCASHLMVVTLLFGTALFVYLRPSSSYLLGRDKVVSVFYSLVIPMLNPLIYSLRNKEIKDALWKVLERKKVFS
# How it was run: as §1
# [3] = system: T3, OR5A1; remark: listed apart in the source
# T3 sequence (whole entry): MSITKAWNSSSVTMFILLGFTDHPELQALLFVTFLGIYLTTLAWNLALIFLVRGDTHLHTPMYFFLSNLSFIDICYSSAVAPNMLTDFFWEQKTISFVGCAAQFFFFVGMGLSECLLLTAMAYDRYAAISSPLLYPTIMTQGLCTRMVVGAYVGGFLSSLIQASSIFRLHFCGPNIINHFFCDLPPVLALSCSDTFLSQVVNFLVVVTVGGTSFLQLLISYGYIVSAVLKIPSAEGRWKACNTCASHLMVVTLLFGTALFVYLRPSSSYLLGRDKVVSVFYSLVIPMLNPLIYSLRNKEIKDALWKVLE
# How it was run: as §1
# [4] = system: T4, OR5A1; remark: listed apart in the source
# T4 sequence (whole entry): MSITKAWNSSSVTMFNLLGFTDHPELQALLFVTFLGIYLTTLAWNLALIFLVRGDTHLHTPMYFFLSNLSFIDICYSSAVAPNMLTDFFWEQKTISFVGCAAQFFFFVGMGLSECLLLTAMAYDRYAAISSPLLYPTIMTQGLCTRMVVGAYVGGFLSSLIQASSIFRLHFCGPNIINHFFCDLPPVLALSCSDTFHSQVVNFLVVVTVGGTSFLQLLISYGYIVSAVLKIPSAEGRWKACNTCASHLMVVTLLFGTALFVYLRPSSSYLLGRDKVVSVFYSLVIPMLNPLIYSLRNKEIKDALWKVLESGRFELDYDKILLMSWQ
# How it was run: as §1
# [5] = biological target: T5, OR5A2 (Homo sapiens) (UniProt Q8NGI9)
# T5 sequence (whole entry): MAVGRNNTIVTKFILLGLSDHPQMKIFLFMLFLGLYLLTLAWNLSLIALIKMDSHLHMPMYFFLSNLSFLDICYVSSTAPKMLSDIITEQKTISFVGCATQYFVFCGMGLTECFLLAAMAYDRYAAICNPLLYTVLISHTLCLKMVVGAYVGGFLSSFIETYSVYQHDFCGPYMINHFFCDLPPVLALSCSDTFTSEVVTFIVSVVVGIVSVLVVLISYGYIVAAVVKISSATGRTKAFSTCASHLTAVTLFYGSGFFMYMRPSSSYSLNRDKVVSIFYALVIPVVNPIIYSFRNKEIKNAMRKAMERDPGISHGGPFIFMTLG
# How it was run: as §1
# [6] = biological target: T6, OR5AK2 (Homo sapiens) (UniProt Q8NH90)
# T6 sequence (whole entry): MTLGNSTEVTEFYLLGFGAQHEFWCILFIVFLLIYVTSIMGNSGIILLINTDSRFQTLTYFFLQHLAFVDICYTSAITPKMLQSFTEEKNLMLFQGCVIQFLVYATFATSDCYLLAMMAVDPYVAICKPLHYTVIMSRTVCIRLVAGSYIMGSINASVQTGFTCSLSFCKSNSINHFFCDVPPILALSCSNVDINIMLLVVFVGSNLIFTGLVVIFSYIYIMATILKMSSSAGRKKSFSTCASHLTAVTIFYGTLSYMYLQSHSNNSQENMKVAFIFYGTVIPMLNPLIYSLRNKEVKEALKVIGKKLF
# How it was run: as §1
# [7] = biological target: T7, OR5AN1 (Homo sapiens) (UniProt Q8NGI8)
# T7 sequence (whole entry): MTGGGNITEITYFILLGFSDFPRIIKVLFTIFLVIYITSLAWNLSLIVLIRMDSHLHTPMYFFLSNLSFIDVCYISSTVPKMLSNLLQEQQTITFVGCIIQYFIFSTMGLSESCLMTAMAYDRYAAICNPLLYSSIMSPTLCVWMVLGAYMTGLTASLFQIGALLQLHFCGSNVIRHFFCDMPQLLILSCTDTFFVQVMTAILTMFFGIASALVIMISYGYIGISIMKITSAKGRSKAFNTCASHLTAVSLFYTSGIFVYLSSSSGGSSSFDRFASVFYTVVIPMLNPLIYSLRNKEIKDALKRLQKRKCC
# How it was run: as §1
# [8] = biological target: T8, OR5AR1 (Homo sapiens) (UniProt Q8NGP9)
# T8 sequence (whole entry): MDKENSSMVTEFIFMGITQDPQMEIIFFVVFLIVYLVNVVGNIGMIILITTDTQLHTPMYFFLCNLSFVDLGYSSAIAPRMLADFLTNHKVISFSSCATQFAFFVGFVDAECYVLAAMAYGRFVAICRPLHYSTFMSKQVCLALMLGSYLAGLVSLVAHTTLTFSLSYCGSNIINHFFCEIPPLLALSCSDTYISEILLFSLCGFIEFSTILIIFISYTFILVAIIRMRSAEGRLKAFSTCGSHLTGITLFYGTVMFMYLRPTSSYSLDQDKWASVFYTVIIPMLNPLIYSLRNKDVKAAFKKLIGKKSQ
# How it was run: as §1
# [9] = biological target: T9, OR5AS1 (Homo sapiens) (UniProt Q8N127)
# T9 sequence (whole entry): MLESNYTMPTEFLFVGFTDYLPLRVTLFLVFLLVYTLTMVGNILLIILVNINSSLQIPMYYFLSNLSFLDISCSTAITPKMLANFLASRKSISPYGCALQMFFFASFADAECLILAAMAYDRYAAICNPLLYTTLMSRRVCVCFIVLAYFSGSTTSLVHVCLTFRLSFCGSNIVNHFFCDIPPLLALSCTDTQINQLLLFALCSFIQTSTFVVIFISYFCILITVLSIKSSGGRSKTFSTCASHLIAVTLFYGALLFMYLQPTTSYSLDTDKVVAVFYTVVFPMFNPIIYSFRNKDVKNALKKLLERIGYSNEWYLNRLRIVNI
# How it was run: as §1
# [10] = biological target: T10, OR5AU1 (Homo sapiens) (UniProt Q8NGC0)
# T10 sequence (whole entry): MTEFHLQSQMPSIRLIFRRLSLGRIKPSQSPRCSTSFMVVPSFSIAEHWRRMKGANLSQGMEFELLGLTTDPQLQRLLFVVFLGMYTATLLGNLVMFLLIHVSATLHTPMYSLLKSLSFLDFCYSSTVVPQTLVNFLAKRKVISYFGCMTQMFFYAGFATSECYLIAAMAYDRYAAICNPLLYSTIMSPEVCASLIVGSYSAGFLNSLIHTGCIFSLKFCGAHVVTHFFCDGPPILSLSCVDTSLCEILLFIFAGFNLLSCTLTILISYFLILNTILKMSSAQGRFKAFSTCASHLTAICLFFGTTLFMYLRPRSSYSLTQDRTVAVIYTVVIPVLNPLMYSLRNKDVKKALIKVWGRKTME
# How it was run: as §1
# [11] = biological target: T11, OR5B17 (Homo sapiens) (UniProt Q8NGF7)
# T11 sequence (whole entry): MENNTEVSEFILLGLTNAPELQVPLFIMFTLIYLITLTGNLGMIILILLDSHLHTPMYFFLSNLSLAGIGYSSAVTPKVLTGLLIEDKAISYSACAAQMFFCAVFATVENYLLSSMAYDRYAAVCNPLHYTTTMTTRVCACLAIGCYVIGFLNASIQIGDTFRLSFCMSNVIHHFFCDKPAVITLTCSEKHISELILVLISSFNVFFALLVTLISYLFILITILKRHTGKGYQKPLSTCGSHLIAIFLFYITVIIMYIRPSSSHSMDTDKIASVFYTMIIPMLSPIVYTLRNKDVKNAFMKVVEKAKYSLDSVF
# How it was run: as §1
# [12] = biological target: T12, OR56B1 (Homo sapiens) (UniProt Q8NGI3)
# T12 sequence (whole entry): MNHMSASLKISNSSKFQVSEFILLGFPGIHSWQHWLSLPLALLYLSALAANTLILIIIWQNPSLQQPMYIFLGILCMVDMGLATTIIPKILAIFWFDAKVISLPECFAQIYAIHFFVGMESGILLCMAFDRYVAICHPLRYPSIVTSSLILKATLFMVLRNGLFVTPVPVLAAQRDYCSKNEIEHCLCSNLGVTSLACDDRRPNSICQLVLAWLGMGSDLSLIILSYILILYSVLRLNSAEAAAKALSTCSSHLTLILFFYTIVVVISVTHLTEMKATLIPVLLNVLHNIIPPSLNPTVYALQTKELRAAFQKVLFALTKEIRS
# How it was run: as §1
# [13] = biological target: T13, OR56B4 (Homo sapiens) (UniProt Q8NH76)
# T13 sequence (whole entry): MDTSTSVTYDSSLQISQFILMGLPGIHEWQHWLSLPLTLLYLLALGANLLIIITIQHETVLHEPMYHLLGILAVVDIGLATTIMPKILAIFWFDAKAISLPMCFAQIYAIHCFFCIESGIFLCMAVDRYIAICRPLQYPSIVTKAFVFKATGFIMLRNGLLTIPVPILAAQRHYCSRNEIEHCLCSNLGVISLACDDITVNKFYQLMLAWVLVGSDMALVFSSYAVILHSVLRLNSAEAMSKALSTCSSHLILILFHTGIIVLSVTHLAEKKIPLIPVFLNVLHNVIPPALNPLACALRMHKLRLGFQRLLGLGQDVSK
# How it was run: as §1
# [14] = biological target: OR5A1 (Homo sapiens) (UniProt Q8NGJ0)
# How it was run: as §1
# [15] = biological target: T14, OR5AC2 (Homo sapiens) (UniProt Q9NZP5)
# T14 sequence (whole entry): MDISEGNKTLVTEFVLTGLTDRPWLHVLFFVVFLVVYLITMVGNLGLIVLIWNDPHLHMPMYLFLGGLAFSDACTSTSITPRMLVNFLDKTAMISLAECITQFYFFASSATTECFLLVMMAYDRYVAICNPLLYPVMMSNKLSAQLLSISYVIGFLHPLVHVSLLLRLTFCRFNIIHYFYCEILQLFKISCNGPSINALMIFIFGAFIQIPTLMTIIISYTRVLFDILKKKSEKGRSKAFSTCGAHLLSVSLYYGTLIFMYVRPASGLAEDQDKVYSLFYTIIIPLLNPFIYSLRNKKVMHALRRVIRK
# How it was run: as §1
# [16] = biological target: OR5AK3P (Homo sapiens) (UniProt Q8NH89)
# How it was run: as §1
# [17] = biological target: OR5AP2 (Homo sapiens) (UniProt Q8NGF4)
# How it was run: as §1
# [18] = biological target: OR5B12 (Homo sapiens) (UniProt Q96R08)
# How it was run: as §1
# [19] = biological target: OR5B2 (Homo sapiens) (UniProt Q96R09)
# How it was run: as §1
# [20] = biological target: OR5B21 (Homo sapiens) (UniProt A6NL26)
# How it was run: as §1
SMILES,odorant receptor agonist call [1],odorant receptor agonist call [2],odorant receptor agonist call [3],odorant receptor agonist call [4],odorant receptor agonist call [5],odorant receptor agonist call [6],odorant receptor agonist call [7],odorant receptor agonist call [8],odorant receptor agonist call [9],odorant receptor agonist call [10],odorant receptor agonist call [11],odorant receptor agonist call [12],odorant receptor agonist call [13],odorant receptor agonist call [14],odorant receptor agonist call [15],odorant receptor agonist call [16],odorant receptor agonist call [17],odorant receptor agonist call [18],odorant receptor agonist call [19],odorant receptor agonist call [20]
C=CCSCC=C,inactive,inactive,inactive,inactive,inactive,inactive,inactive,inactive,inactive,inactive,inactive,–,–,–,–,–,–,–,–,–
C=CCc1ccc(OC)c(OC)c1,inactive,inactive,inactive,inactive,inactive,inactive,inactive,inactive,inactive,inactive,inactive,–,–,–,–,–,–,–,–,–
CC(C)(O)CCCC1=CCC(C=O)CC1 (stereo unspecified),inactive,–,–,–,–,–,–,–,–,–,–,–,–,–,–,–,–,–,–,–
CCCCCCCCOC(C)=O,active,inactive,inactive,inactive,inactive,inactive,inactive,inactive,inactive,inactive,inactive,–,–,–,–,–,–,–,–,–
COC(=O)c1ccccc1O,inactive,inactive,inactive,inactive,inactive,inactive,inactive,inactive,inactive,inactive,inactive,–,–,–,–,–,–,–,–,–
CC(=O)C(C)=O,inactive,inactive,inactive,inactive,inactive,inactive,inactive,inactive,inactive,inactive,inactive,inactive,inactive,–,–,–,–,–,–,–
CCCCCCCCCC=O,inactive,inactive,inactive,inactive,inactive,inactive,inactive,inactive,inactive,inactive,inactive,–,–,–,–,–,–,–,–,–
COc1cc(C=O)ccc1O,inactive,inactive,inactive,inactive,inactive,inactive,inactive,inactive,inactive,inactive,inactive,–,–,–,–,–,–,–,–,–
CC12C=CCC1C1CCC3CC(=O)CCC3(C)C1CC2 (stereo unspecified),inactive,inactive,active,active,–,inactive,inactive,–,active,inactive,–,inactive,inactive,inactive,inactive,inactive,inactive,inactive,inactive,inactive
CC(C)CCC(=O)O,inactive,inactive,inactive,inactive,inactive,inactive,inactive,inactive,inactive,inactive,inactive,–,–,–,–,–,–,–,–,–
O=C1CCCCCCCCCCCCCCO1,inactive,inactive,inactive,inactive,inactive,inactive,–,inactive,inactive,inactive,inactive,–,–,–,inactive,–,–,–,–,–
CC=Cc1ccc(O)c(OC)c1,active,inactive,inactive,inactive,inactive,inactive,inactive,active,inactive,inactive,inactive,–,–,–,–,–,–,–,–,–
O=C1CCCCCCCCCCCC(=O)OCCO1,active,inactive,inactive,inactive,inactive,inactive,active,inactive,inactive,inactive,inactive,–,–,–,–,–,–,–,–,–
